The assay can be described thus: qHTS Assay to Find Inhibitors of Chronic Active B-Cell Receptor Signaling. Particulars: ABC-DLBCL IkBa-CBG/CBR reporter, luminescence ratio (green luciferase fused to IkBa over red control in TMD8 lymphoma cells), 4 h. The procedure, abridged:
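Concentration-response series (up to 46 uM) were applied to TMD8 dual-reporter cells for 4 h at 37C with doxycycline. Green/red ratio, after filter-overlap correction, defined %Activity; red signal alone was normalised to basal cells and zero luminescence.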
A general note: In qHTS, concentration-response curves come from the screen itself.

[1] abbreviates: measured here: CBR red luminescence, cell number.
[2] abbreviates: measured here: IkBa-CBG green luminescence.

Some of the results follow. Shown are side measurements of this screen, not its main read-out; they come without a call. Most of these compounds were active or inconclusive in the main read-out, so they are no random draw. Potencies come from curve fits of mixed quality, noted in brackets.

For orientation: AC50 means the concentration at which the activity in the assay is half-maximal. Take `COc1ccc(/C=C(/C(=O)c2cccs2)N2C=CC=CC2=C(C#N)C#N)cc1`: the AC50 under setting [1] was 2.91 µM [rising, full curve].

Take `C=CC[C@@H](CC(=O)N[C@H](CO)Cc1ccccc1)C(=O)N[C@@H](COC(=O)[C@@H](CC=C)CC(=O)OC(C)(C)C)Cc1c[nH]c2ccccc12`: the AC50 under setting [1] was 1.46 µM [falling, full curve, poor fit]. For `Cc1ccc2[nH]c(=O)c(CN(Cc3cccs3)Cc3nnnn3Cc3ccccc3)cc2c1`, the AC50 under setting [1] is 22.4 µM [falling, single point]. With `CN1CCN(c2ncccc2S(=O)(=O)N2CCCCC2)CC1`, under setting [1], the AC50 is 18.4 µM [rising, single point].

Turning to `O=c1[nH]c2ccccc2n1C1=CCCC1`, the AC50 under setting [1] is 7.08 µM [rising, partial curve, poor fit].

Turning to `O=C(CSc1ncn[nH]1)Nc1ccc(Br)cc1F`, under setting [1], the AC50 was 35.5 µM [falling, single point]. On the same count and under the same terms, next, `CCCCN(CCCC)C(=O)CCS(=O)(=O)c1ccc2c(c1)n(C)c(=O)c(=O)n2C`: 14.1 µM [falling, single point]; `C/C(=N\NC(=O)c1ccc(F)cc1)c1ccc(NC(=O)Cc2ccccc2)cc1`: 11.2 µM [falling, partial curve]; `O=C(Nc1ccccc1Cl)Oc1ccc(-c2ccccc2)cc1`: 35.5 µM [rising, partial curve, poor fit]. With `Cc1nc(-c2ccc(O)c(O)c2)cs1`, under setting [1], the AC50 is 2.06 µM [falling, partial curve, poor fit]. As to `Cc1cc(=O)[nH]c(SCC(=O)Nc2ccccc2C)n1`, the AC50 under setting [1] was 3.16 µM [rising, partial curve, poor fit]. Still for that read-out and setting: next, `Cc1ccc(SC[C@H](CC(C)C)N2CCN(CCc3ccccc3)CCC2=O)cc1`: 1.12 µM [falling, partial curve]. Turning to `CCc1nn(C(C)C(=O)NCCc2ccc(OC)c(OC)c2)c(=O)c2cc3occc3n12` (configuration not stated), the AC50 under setting [1] is 32.6 µM [rising, single point]. `Cc1ccc(N=C2C(=O)Nc3ccc(Br)cc32)cc1`: the AC50 under setting [2] was 25.1 µM [falling, single point]. Turning to `S=C(N/N=C/c1ccccc1Cl)Nc1ccccc1`, the AC50 under setting [1] is 12.6 µM [falling, partial curve]. Same read-out and setting: next, `O=C(NCc1ccco1)c1cccc(NC(=O)c2ccccc2)c1`: 4.11 µM [falling, single point]. For the molecule `COc1ccc(/C=N/NC(=O)Nc2nonc2N)cc1`, under setting [1], the AC50 was 1.16 µM [rising, partial curve, poor fit]. In the case of `Cc1cnn(Cc2ccccc2)c1N`, the AC50 under setting [1] was 6.51 µM [rising, single point]. Regarding `CCOC(=O)N1CCC(NC(=O)CS(=O)(=O)Cc2nc(-c3cccc(OC)c3)oc2C)CC1`, the AC50 under setting [1] is 0.794 µM [rising, full curve, poor fit]. Turning to `Cc1ccc(NC(=O)c2ccc(NS(=O)(=O)c3ccc4[nH]c(=O)[nH]c4c3)cc2)nc1`, the AC50 under setting [1] was 5.17 µM [falling, full curve, poor fit]. As to `COc1ccc(NC(=O)c2noc3c2CCC3)cc1`, the AC50 under setting [1] was 8.2 µM [falling, partial curve, poor fit]. For `CCOc1ccc(C(C)=O)cc1COC(=O)C1=COCCO1`, the AC50 under setting [1] is 1.12 µM [falling, full curve]. Take `CC(=O)N1CCc2cc(S(=O)(=O)NCCC(=O)Nc3cccc(C)c3C)ccc21`: under setting [1], the AC50 was 32.6 µM [rising, single point]. Consider `CCOc1nc(-c2ccc(Cl)cc2Cl)ccc1C#N`, for which the AC50 under setting [1] is 16.4 µM [rising, partial curve]. For `CCCn1c(=O)c2c(nc3n2CCCN3CCc2ccccc2)n(C)c1=O`, under setting [1], the AC50 is 22.4 µM [falling, single point]. As to `CC(=O)Nc1ccc2nc(NC(=O)c3cccnc3)sc2c1`, under setting [1], the concentration at half-maximal activity (AC50) is 11.2 µM [falling, partial curve]. As to `CCOC(=O)Cc1csc(NC(=O)c2sc3nc4cc(C)ccc4cc3c2N)n1`, the AC50 under setting [1] was 1.84 µM [falling, full curve]. In the case of `COC(=O)Cc1c(C)nc2nc(-c3ccc(OC)cc3)[nH]n2c1=O`, the AC50 under setting [1] was 0.92 µM [falling, full curve]. Regarding `Clc1ncnc2scc(C3COc4ccccc4O3)c12` (configuration not stated), the AC50 under setting [1] was 1.84 µM [falling, partial curve, poor fit] and the AC50 under setting [2] was 25.9 µM [rising, partial curve, poor fit]. Turning to `CCCCCC1CC(CC(=O)Nc2ccc([N+](=O)[O-])cc2)C(=O)O1` (configuration not stated), the AC50 under setting [2] was 5.8 µM [rising, partial curve, poor fit]. Take `CC(c1ccccc1)C1CC(=O)N(c2ccc(C(=O)O)cc2)C1=O` (configuration not stated): the AC50 under setting [1] was 13 µM [rising, single point]. Take `c1ccc2nc(-c3ccc(-n4ccnc4)cc3)ccc2c1`: the AC50 under setting [1] is 0.141 µM [rising, full curve, poor fit]. Turning to `COc1ccc(/C=C/C(=O)C2CC2)cc1COc1c(C)cccc1C`, the AC50 is 35.5 µM [rising, single point] under setting [1] and 35.5 µM [falling, single point] under setting [2]. With `O=C1Nc2ccccc2S/C1=C/Nc1cccc(Cl)c1`, the AC50 under setting [1] is 0.0794 µM [falling, full curve]. Still for that read-out and setting: next, `C/C(=N\O)c1ccc2c3ccccc3n(C)c2c1`: 7.94 µM [rising, partial curve]; `N#CCSc1nc2c(cc1C#N)CCCCCC2`: 29.1 µM [rising, single point]. Take `O=c1[nH]cnc2c1c(-c1ccccc1)cn2-c1cccc(Cl)c1`: the AC50 under setting [1] is 4.47 µM [falling, partial curve]. On to `N#C/C(=C/c1ccc(N2CCOCC2)o1)c1nc2ccccc2[nH]1`, for which, under setting [1], the AC50 is 8.2 µM [falling, partial curve]. For `CCc1ccc2nc(N3CCN(C(=O)C(C)(C)C)CC3)sc2c1`, under setting [1], the AC50 was 0.891 µM [rising, full curve, poor fit].

With `COc1ccc(-c2nc(C#N)c(NCCc3ccccc3)o2)cc1`, the AC50 under setting [1] was 18.4 µM [rising, partial curve, poor fit]. On the same count and under the same terms, the same measure for `NNC(=O)c1ccc2ccccc2n1`: 0.501 µM [falling, full curve, poor fit]; for `COc1ccc(S(=O)(=O)NCc2ccco2)cc1NC(=O)c1ccccc1`: 14.1 µM [falling, single point]; for `CS(=O)(=O)N1CCN=C1SCc1ccc(F)cc1`: 14.1 µM [rising, partial curve, poor fit]. For the molecule `CC12CCC(C(=O)N3CCN(c4ncccn4)CC3)(c3nc4ccccc4nc31)C2(C)C` (configuration not stated), under setting [1], the AC50 is 2.06 µM [rising, partial curve, poor fit].

As to `CNCC[C@@H](Oc1ccc(C(F)(F)F)cc1)c1ccccc1`, the AC50 under setting [1] is 11.6 µM [falling, partial curve, poor fit].

For the molecule `COc1ccccc1CNC(=O)CSc1nc(=O)n(Cc2ccncc2)c2c1CCC2`, the AC50 under setting [1] is 14.6 µM [falling, partial curve]. Same read-out and setting: the same measure for `CCN(CC)CCN1C(=O)C(=O)/C(=C(/O)c2c(C)[nH]c(C(=O)OC)c2C)C1c1ccc(C)o1` (configuration not stated): 35.5 µM [falling, single point].

`CCOC(=O)c1c(SC)nc(SC)c2c1CCC2`: the AC50 under setting [1] was 0.92 µM [rising, full curve, poor fit]. For `CCOc1ncccc1C(=O)N=c1sccn1C`, the AC50 under setting [1] is 0.794 µM [rising, full curve, poor fit]. Regarding `CCOc1ccccc1NC(=O)COC(=O)Cc1ccc(-c2ccccc2)cc1`, the AC50 under setting [1] is 13 µM [falling, partial curve]. In the case of `COCCNC(=O)c1cc2sc3ccccc3c2s1`, the AC50 under setting [1] was 1.3 µM [rising, partial curve, poor fit]. For `CCN(CC)S(=O)(=O)c1ccc(NC(=O)COC(=O)CNS(=O)(=O)/C=C/c2ccccc2)cc1`, under setting [1], the AC50 is 29.1 µM [falling, single point].

Turning to `Cc1cc(Cl)ccc1OCC(=O)N1CCCCC1`, the AC50 is, setting by setting: under setting [1], 32.6 µM [rising, single point]; under setting [2], 32.6 µM [falling, partial curve, poor fit]. Regarding `Brc1cccc(Nc2nc(-c3cccnc3)cs2)c1`, the AC50 under setting [1] is 3.55 µM [rising, partial curve, poor fit]. As for `COc1cc(C(=O)N(CCN(C)C)CC2CCCN(Cc3ccccc3F)C2)ccc1C` (configuration not stated), under setting [1], the AC50 was 28.2 µM [falling, partial curve, poor fit].

Consider `COc1ccc(OC)c(-c2cc(C(=O)Nc3c(C)nn(Cc4ccccc4)c3C)no2)c1`, for which the AC50 reads like this: under setting [1], 3.55 µM [rising, single point]; under setting [2], 14.1 µM [falling, partial curve, poor fit]. For the molecule `COc1ccc(-c2noc(CSc3nc4sc(C)c(C)c4c(=O)n3-c3ccccc3)n2)cc1OC`, the AC50 under setting [1] was 1.64 µM [rising, full curve].

Consider `O=C(CCc1ccccc1)NC1(Cc2ccccc2)CCN(CCCc2ccccc2)C1=O` (configuration not stated), for which the AC50 under setting [1] is 23.1 µM [falling, partial curve, poor fit]. Same read-out and setting: the same measure for `O=C(Cc1ccccc1F)Nc1nc(-c2ccc(F)c(F)c2)cs1`: 28.2 µM [falling, single point]; for `COc1ccc(S(=O)(=O)N2CCOCC2)cc1NC(=O)c1cc(=O)[nH]c2ccccc12`: 0.13 µM [rising, full curve, poor fit]; for `CC(=O)N1N=C(c2ccc(Br)cc2)CC1c1cn(C)c2ccccc12` (configuration not stated): 1.3 µM [falling, partial curve, poor fit].

On to `COc1cc2[nH]c3c(N4CCN(c5ccc(Cl)cc5)CC4)ncnc3c2cc1OC`, for which the AC50 under setting [1] was 35.5 µM [rising, single point]. For the molecule `CCOC(=O)N1CCN(C(=O)c2cc3ccc(OC)cc3[nH]2)CC1`, the AC50 under setting [1] was 0.562 µM [rising, partial curve, poor fit].

Source of the values: PubChem BioAssay AID493014 (National Center for Advancing Translational Sciences (NCATS), 2011).
